According to patent US20180311342A1, “IMMUNOSTIMULATING AGENT” (AJINOMOTO CO., INC., priority 2017, published 2018):
At least one structure is not confirmed: it was looked up by name or label, or the drawing left a doubt.

Key:
Type in all cases: in vivo, BALB/c mice
[1] = system: anti-OVA-specific IgG2a subclass antibody; assay: Adjuvant activity test: anti-OVA-specific IgG2a subclass antibody in serum of OVA-immunized mice (ELISA); details: after secondary immunization, serum 2 weeks later; OVA 5 μg + compound 0.256 μmol in 5% αCD-added saline (Addavax mixed with saline at 1:1), dorsal-subcutaneous; compared to OVA single administration group
Method: (§1) 8-Week-old female BALB/c mice were divided into groups (N=6), and each group was primarily immunized by dorsal-subcutaneous administration of (1) ovalbumin (OVA) (5 μg) dissolved in saline as an antigen (OVA single administration group), (2) OVA 5 μg and Addavax™ (mixed with saline at 1:1) dissolved in saline (Addavax™ administration group) as positive control adjuvant, (3) OVA 5 μg and SZ137 0.256 μmol dissolved or dispersed in 5% α-cyclodextrin (hereinafter to be simply referred to as αCD)-added saline (SZ137 administration group), (4) OVA (5 μg) and SZ138 (0.256 μmol) dissolved or dispersed in 5% αCD-added saline (SZ138 administration group), (5) OVA (5 μg) and SZ142 (0.256 μmol) dissolved or dispersed in 5% αCD-added saline (SZ142 administration group), (6) OVA (5 μg) and SZ144 (0.256 μmol) dissolved or dispersed in 5% αCD-added saline (SZ144 administration group), (7) OVA (5 μg) and SZ145 (0.256 μmol) dissolved or dispersed in 5% αCD-added saline (SZ145 administration group), (8) OVA (5 μg) and SZ146 (0.256 μmol) dissolved or dispersed in 5% αCD-added saline (SZ146 administration group), (9) OVA (5 μg) and SZ147 (0.256 μmol) dissolved or dispersed in 5% αCD-added saline (SZ147 administration group), (10) OVA (5 μg) and SZ148 (0.256 μmol) dissolved or dispersed in 5% αCD-added saline (SZ148 administration group), each per mouse. […] Two weeks from the secondary immunization, the whole blood was extracted under anesthesia, and the obtained serum sample was measured for anti-OVA-specific IgG1 subclass antibody, anti-OVA-specific IgG2a subclass antibody, and anti-OVA-specific IgE antibody. […]
(§2) To a 96 well plate was added 5 μg/ml OVA at 100 µl/well, and the mixture was incubated at 4° C. overnight. […] When an anti-OVA-specific IgG2a subclass antibody was measured, the standard of an anti-OVA-specific IgG2a subclass antibody was added at 50 ng/ml, 25 ng/ml, 12.5 ng/ml, 6.25 ng/ml, 3.125 ng/ml, 1.56 ng/ml, 0.781 ng/ml, 0.391 ng/ml, 0.195 ng/ml, 0.098 ng/ml, 0.049 ng/ml, 0 ng/ml, per 1 well. […]

[2] = system: anti-OVA-specific IgG1 subclass antibody; assay: Adjuvant activity test: anti-OVA-specific IgG1 subclass antibody in serum of OVA-immunized mice (ELISA); details: after secondary immunization, serum 2 weeks later; OVA 5 μg + compound 0.256 μmol in 5% αCD-added saline (Addavax mixed with saline at 1:1), dorsal-subcutaneous; compared to OVA single administration group
Method: as §1, §2

[3] = system: anti-OVA-specific IgG2a subclass antibody; assay: Adjuvant activity test: anti-OVA-specific IgG2a subclass antibody in serum of OVA-immunized mice (ELISA); details: after primary immunization, serum 2 weeks later; OVA 5 μg + compound 0.256 μmol in 5% αCD-added saline (Addavax mixed with saline at 1:1), dorsal-subcutaneous; compared to OVA single administration group
[4] = system: anti-OVA-specific IgG1 subclass antibody; assay: Adjuvant activity test: anti-OVA-specific IgG1 subclass antibody in serum of OVA-immunized mice (ELISA); details: after primary immunization, serum 2 weeks later; OVA 5 μg + compound 0.256 μmol in 5% αCD-added saline (Addavax mixed with saline at 1:1), dorsal-subcutaneous; compared to OVA single administration group

Row | Structure (SMILES) | anti-OVA-specific IgG2a subclass antibody production [1] | anti-OVA-specific IgG1 subclass antibody production [2] | anti-OVA-specific IgG2a subclass antibody production [3] | anti-OVA-specific IgG1 subclass antibody production [4]
1 | CCCCCCCCCCCCCCCCNC(=O)N[C@@H](CCCNC(=N)N)C(=O)NCCCCCCCCCCCC.Cl [SZ149, (2S)—N-dodecyl-5-guanidino-2-(hexadecylcarbamoylamino)pentanamide hydrochloride] | significantly increased | significantly increased |  | 
2 | CCCCCCCCCCCCCCCCNC(=O)N[C@@H](CC(C)C)C(=O)NCCCCCCCCCCCC [SZ200, (2S)—N-dodecyl-2-(hexadecylcarbamoylamino)-4-methyl-pentanamide] | tended to increase | tended to increase | tended to increase | tended to increase
3 | CCCCCCCCCCCCCCCCOC(=O)N[C@@H](CC(C)C)C(=O)NCCCCCCCCCCCC [SZ202, hexadecyl N-[(1S)-1-(dodecylcarbamoyl)-3-methyl-butyl]carbamate] | tended to increase | significant enhancement | Significant enhancement | tended to increase
